Results are given in words; binding and its absence hold for the method and conditions named. In cells and extracts the contact can be indirect. Some results given as binding are weak or reduced against the parent protein; the word gives no strength.

By UniProt entry, the sequences of proteins in these tests, tags left out.
UniProt P03107, whole entry: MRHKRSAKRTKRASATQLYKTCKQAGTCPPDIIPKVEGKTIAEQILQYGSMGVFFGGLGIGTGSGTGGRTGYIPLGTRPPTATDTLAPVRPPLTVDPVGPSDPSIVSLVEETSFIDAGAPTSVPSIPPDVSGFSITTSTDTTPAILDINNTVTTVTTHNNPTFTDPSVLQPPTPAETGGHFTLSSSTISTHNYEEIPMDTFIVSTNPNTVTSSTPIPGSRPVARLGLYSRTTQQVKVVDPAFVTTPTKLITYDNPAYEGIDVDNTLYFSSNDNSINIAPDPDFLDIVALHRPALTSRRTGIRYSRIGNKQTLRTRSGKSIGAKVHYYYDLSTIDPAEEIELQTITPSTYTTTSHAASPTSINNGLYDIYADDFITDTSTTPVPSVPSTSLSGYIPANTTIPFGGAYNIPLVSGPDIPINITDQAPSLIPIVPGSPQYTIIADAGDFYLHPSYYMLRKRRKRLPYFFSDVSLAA

This is an account of results in paper doi:10.1101/2023.05.01.538937.

The target of test [1] is T1, Rab9a (human (endogenous in HeLa S3)) (UniProt P51151).
T1 sequence: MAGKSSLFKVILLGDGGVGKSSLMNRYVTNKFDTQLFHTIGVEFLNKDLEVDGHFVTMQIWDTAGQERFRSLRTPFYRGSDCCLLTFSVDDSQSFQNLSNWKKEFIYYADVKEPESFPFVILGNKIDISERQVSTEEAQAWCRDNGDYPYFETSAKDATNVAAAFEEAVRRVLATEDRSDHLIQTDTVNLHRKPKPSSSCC
Description: co-IP.

In test [2] the target is T1, Rab9a (human (endogenous in HeLa S3)). The test can be described thus: proximity ligation.

Take “HPV16 L2 protein with a C-terminal 3xFLAG tag (from UniProt P03107 1-473)”: in test [1], the binding result was “binds”.

As to “HPV16 PsV L2-3XFLAG (from UniProt P03101 1-505; P03107 1-473) (complex)”, the binding entry in test [2] is given as “binds”.

For the substance “HPV16 PsV containing HA-tagged wild-type L2 (from UniProt P03101 1-505; P03107 1-473) (complex)”, in test [2], the binding entry is “binds”.
